In publication PMC8351955, “Targeting Mycobacterium tuberculosis response to environmental cues for the development of effective antitubercular drugs” (PLoS Biology, 2021):
“And” between values parts separate entries of the source, which are not always exact repeats. Identical values can stand only once. This continues a long series; more values of the same kind are listed elsewhere.

How the values were obtained:
[1] = system: macrophage phagosomal acidification in BMDMs; experiment: Phagosomal maturation assay, carboxyfluorescein beads (pH readout); format: cell-based, mouse
Procedure: (§1) Carboxyfluorescein (pH readout), DQ-BSA/Alexa Fluor 594 (AF594) (proteolysis readout), and BAC/AF594 (Cl^− readout) beads were generated essentially as previously described, except that 10,10′-Bis[3-carboxylpropyl]-9,9′-biacridinium dinitrate di-NHS ester (BAC-SE) was purchased from emp Biotech LLC. BMDMs were isolated from C57BL/6J mice (The Jackson Laboratory) and maintained as described above. A quantity of 2 × 10^5 macrophages/well were seeded into 96-well clear bottom black plates and utilized in assays 1 to 2 days post-seeding. […] Assay buffer consisted of PBS (pH 7.2), supplemented with 5% FBS, 5 mM dextrose, 1 mM CaCl2, 2.7 mM KCl, and 0.5 mM MgCl2 in the case of assays with the carboxyfluorescein or DQ-BSA/AF594 beads. For assays with the BAC/AF594 beads, assay buffer consisted of PBS (pH 7.2), supplemented with 5% FBS, 5 mM dextrose, 1 mM calcium acetate, 1.35 mM K2SO4, and 0.5 mM MgSO4 [9]. Sensor beads at approximately 2 to 5 beads/macrophage in appropriate assay buffer were finally added, with data acquisition on a Biotek Synergy H1 microplate reader with bottom read signal detection started within 2 to 3 minutes of bead addition. Excitation/emission wavelengths were 450 nm/520 nm and 490 nm/520 nm for carboxyfluorescein, 490 nm/520 nm for DQ-BSA, 365 nm/505 nm for BAC, and 590 nm/617 nm for AF594. Each experiment was run with a total of 3 to 5 replicate wells/condition, with temperature maintained at 37°C throughout the assay. Wells were read every 2 minutes for 2 hours for the carboxyfluorescein bead assays, every 2 minoutes for 4 hours for the DQ-BSA/AF594 bead assays, and every 1 minute for 2 hours for the BAC/AF594 bead assays. Analyses of the results were performed as previously described.

[2] = system: macrophage phagosomal [Cl−] in BMDMs; experiment: Phagosomal maturation assay, BAC/AF594 beads (Cl− readout); format: cell-based, mouse
Procedure: as §1, with “above.” for “above. A quantity of 2 × 10^5 macrophages/well were seeded into 96-well clear bottom black plates and utilized in assays 1 to 2 days post-seeding.”

CCSc1ncc(CN2CCN(c3nc4ccccc4o3)CC2)cn1 [C6, 2-(4-((2-(ethylthio)pyrimidin-5-yl)methyl)piperazin-1-yl)benzo[d]oxazole]
490 nm/450 nm, single replicates (Rep 1-5) ([1]; time 0 minutes): 4.897 and 4.891 and 4.958 and 4.914 and 4.628 | 490 nm/450 nm, single replicates (Rep 1-5) ([1]; time 2 minutes): 4.9719 and 4.922 and 4.857 and 4.823 and 5.0783 | 490 nm/450 nm, single replicates (Rep 1-5) ([1]; time 4 minutes): 4.797 and 4.947 and 4.836 and 4.834 and 4.999 | 490 nm/450 nm, single replicates (Rep 1-5) ([1]; time 46 minutes): 2.295 and 2.319 and 2.388 and 2.35 and 2.405 | 490 nm/450 nm, single replicates (Rep 1-5) ([1]; time 48 minutes): 2.309 and 2.305 and 2.374 and 2.321 and 2.44 | 490 nm/450 nm, single replicates (Rep 1-5) ([1]; time 50 minutes): 2.321 and 2.319 and 2.384 and 2.339 and 2.391 | 490 nm/450 nm, single replicates (Rep 1-5) ([1]; time 52 minutes): 2.311 and 2.303 and 2.369 and 2.33 and 2.398 | 490 nm/450 nm, single replicates (Rep 1-5) ([1]; time 54 minutes): 2.297 and 2.314 and 2.361 and 2.345 and 2.395 | 490 nm/450 nm, single replicates (Rep 1-5) ([1]; time 56 minutes): 2.299 and 2.311 and 2.334 and 2.316 and 2.409 | 490 nm/450 nm, single replicates (Rep 1-5) ([1]; time 58 minutes): 2.303 and 2.295 and 2.364 and 2.337 and 2.384 | 490 nm/450 nm, single replicates (Rep 1-5) ([1]; time 60 minutes): 2.31 and 2.297 and 2.374 and 2.3199 and 2.396 | 490 nm/450 nm, single replicates (Rep 1-5) ([1]; time 62 minutes): 2.331 and 2.323 and 2.349 and 2.351 and 2.416 | 490 nm/450 nm, single replicates (Rep 1-5) ([1]; time 64 minutes): 2.302 and 2.332 and 2.372 and 2.3306 and 2.408 | 490 nm/450 nm, single replicates (Rep 1-5) ([1]; time 66 minutes): 2.329 and 2.307 and 2.358 and 2.353 and 2.408 | 490 nm/450 nm, single replicates (Rep 1-5) ([1]; time 68 minutes): 2.333 and 2.305 and 2.3735 and 2.335 and 2.442 | 490 nm/450 nm, single replicates (Rep 1-5) ([1]; time 70 minutes): 2.349 and 2.33 and 2.382 and 2.354 and 2.393 | 490 nm/450 nm, single replicates (Rep 1-5) ([1]; time 72 minutes): 2.3579 and 2.318 and 2.353 and 2.37 and 2.417 | 490 nm/450 nm, single replicates (Rep 1-5) ([1]; time 74 minutes): 2.3657 and 2.326 and 2.384 and 2.368 and 2.447 | 490 nm/450 nm, single replicates (Rep 1-5) ([1]; time 76 minutes): 2.366 and 2.348 and 2.382 and 2.353 and 2.457 | 490 nm/450 nm, single replicates (Rep 1-5) ([1]; time 78 minutes): 2.367 and 2.348 and 2.394 and 2.364 and 2.425 | 490 nm/450 nm, single replicates (Rep 1-5) ([1]; time 80 minutes): 2.379 and 2.348 and 2.401 and 2.392 and 2.4408 | 490 nm/450 nm, single replicates (Rep 1-5) ([1]; time 82 minutes): 2.374 and 2.35 and 2.375 and 2.377 and 2.458 | 490 nm/450 nm, single replicates (Rep 1-5) ([1]; time 84 minutes): 2.361 and 2.339 and 2.3956 and 2.383 and 2.468 | 490 nm/450 nm, single replicates (Rep 1-5) ([1]; time 86 minutes): 2.38 and 2.374 and 2.385 and 2.397 and 2.461 | 490 nm/450 nm, single replicates (Rep 1-5) ([1]; time 88 minutes): 2.401 and 2.377 and 2.389 and 2.416 and 2.489 | 490 nm/450 nm, single replicates (Rep 1-5) ([1]; time 90 minutes): 2.409 and 2.352 and 2.404 and 2.422 and 2.468 | 490 nm/450 nm, single replicates (Rep 1-5) ([1]; time 92 minutes): 2.417 and 2.382 and 2.459 and 2.421 and 2.458 | 490 nm/450 nm, single replicates (Rep 1-5) ([1]; time 94 minutes): 2.404 and 2.373 and 2.435 and 2.426 and 2.49 | 490 nm/450 nm, single replicates (Rep 1-5) ([1]; time 96 minutes): 2.43 and 2.399 and 2.447 and 2.421 and 2.431 | 490 nm/450 nm, single replicates (Rep 1-5) ([1]; time 98 minutes): 2.426 and 2.385 and 2.454 and 2.425 and 2.499 | 490 nm/450 nm, single replicates (Rep 1-5) ([1]; time 100 minutes): 2.449 and 2.407 and 2.439 and 2.433 and 2.509 | 490 nm/450 nm, single replicates (Rep 1-5) ([1]; time 102 minutes): 2.455 and 2.435 and 2.463 and 2.434 and 2.473 | 490 nm/450 nm, single replicates (Rep 1-5) ([1]; time 104 minutes): 2.4482 and 2.403 and 2.464 and 2.4607 and 2.488 | 490 nm/450 nm, single replicates (Rep 1-5) ([1]; time 106 minutes): 2.461 and 2.426 and 2.464 and 2.443 and 2.511 | 490 nm/450 nm, single replicates (Rep 1-5) ([1]; time 108 minutes): 2.458 (2×) and 2.408 and 2.476 and 2.543 | 490 nm/450 nm, single replicates (Rep 1-5) ([1]; time 110 minutes): 2.479 and 2.411 and 2.4971 and 2.462 and 2.502 | 490 nm/450 nm, single replicates (Rep 1-5) ([1]; time 112 minutes): 2.469 and 2.454 and 2.475 and 2.482 and 2.516 | 490 nm/450 nm, single replicates (Rep 1-5) ([1]; time 114 minutes): 2.483 and 2.432 and 2.485 and 2.489 and 2.486 | 490 nm/450 nm, single replicates (Rep 1-5) ([1]; time 116 minutes): 2.488 and 2.437 and 2.494 and 2.4673 and 2.538 | 490 nm/450 nm, single replicates (Rep 1-5) ([1]; time 118 minutes): 2.491 and 2.45 and 2.494 and 2.488 and 2.5451 | 490 nm/450 nm, single replicates (Rep 1-5) ([1]; time 120 minutes): 2.484 and 2.473 and 2.505 and 2.465 and 2.5316 | AF594/BAC fluorescence, replicates ([2]; Time 20 minutes): 0.6088 and 0.64 and 0.5989 and 0.6216 | AF594/BAC fluorescence, replicates ([2]; Time 21 minutes): 0.6189 and 0.6273 and 0.6415 and 0.5949 and 0.6136 | AF594/BAC fluorescence, replicates ([2]; Time 22 minutes): 0.6028 and 0.6109 and 0.6538 and 0.6008 and 0.6285
